# Measured values reported in the supplement of paper PMC8728848.
# The other results are listed elsewhere or left out.
# How the values were obtained:
# Test in all cases: glycan array binding signal (z-score within array); higher = stronger binding
# Settings in all cases: glycan notation: IUPAC condensed, linker removed
# GlcNAc(b1-6)GalNAc = molecular target: GlcNAc(b1-6)GalNAc
# In short: (§1)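 Columns mapping to the same glycan were averaged after glycan names were converted to IUPAC-condensed notation. The data come from 3228 arrays in the Consortium for Functional Glycomics database, limited to those with an available protein sequence. Binding is reported as a within-array Z-score averaged across arrays of one protein sequence and across linkers.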
# GlcNAc3Prop(b1-4)GlcNAc = molecular target: GlcNAc3Prop(b1-4)GlcNAc
# In short: as §1
# [1] = molecular target: GlcNAc6S(b1-3)Gal(b1-4)GlcNAc
# In short: as §1
# Kdn(a2-3)Gal(b1-3)GalNAc = molecular target: Kdn(a2-3)Gal(b1-3)GalNAc
# In short: as §1
# Kdn(a2-3)Gal(b1-3)GlcNAc = molecular target: Kdn(a2-3)Gal(b1-3)GlcNAc
# In short: as §1
# Kdn(a2-3)Gal(b1-4)Glc = molecular target: Kdn(a2-3)Gal(b1-4)Glc
# In short: as §1
# Kdn(a2-3)Gal(b1-4)GlcNAc = molecular target: Kdn(a2-3)Gal(b1-4)GlcNAc
# In short: as §1
# [2] = molecular target: Kdn(a2-3)Gal(b1-4)[Fuc(a1-3)]GlcNAc
# In short: as §1
# Kdn(a2-6)Gal(b1-4)GlcNAc = molecular target: Kdn(a2-6)Gal(b1-4)GlcNAc
# In short: as §1
# [3] = molecular target: Man(a1-2)Man(a1-2)Man(a1-3)Man
# In short: as §1
# [4] = molecular target: Man(a1-2)Man(a1-2)Man(a1-6)[Man(a1-3)]Man
# In short: as §1
# Man(a1-2)Man(a1-3)Man = molecular target: Man(a1-2)Man(a1-3)Man
# In short: as §1
# [5] = molecular target: Man(a1-2)Man(a1-3)[Man(a1-2)Man(a1-6)]Man
# In short: as §1
# [6] = molecular target: Man(a1-2)Man(a1-3)[Man(a1-2)Man(a1-6)]Man(a1-6)[Man(a1-2)Man(a1-2)Man(a1-3)]Man
# In short: as §1
# [7] = molecular target: Man(a1-2)Man(a1-3)[Man(a1-2)Man(a1-6)]Man(a1-6)[Man(a1-2)Man(a1-2)Man(a1-3)]Man(b1-4)GlcNAc(b1-4)GlcNAc
# In short: as §1
# [8] = molecular target: Man(a1-2)Man(a1-3)[Man(a1-6)]Man(a1-6)[Man(a1-2)Man(a1-3)]Man(b1-4)GlcNAc(b1-4)GlcNAc
# In short: as §1
# [9] = molecular target: Man(a1-2)Man(a1-6)[Man(a1-3)]Man(a1-6)[Man(a1-2)Man(a1-2)Man(a1-3)]Man
# In short: as §1
# [10] = molecular target: Man(a1-2)Man(a1-6)[Man(a1-3)]Man(a1-6)[Man(a1-2)Man(a1-2)Man(a1-3)]Man(b1-4)GlcNAc(b1-4)GlcNAc
# In short: as §1
# Man(a1-3)[Man(a1-6)]Man = molecular target: Man(a1-3)[Man(a1-6)]Man
# In short: as §1
# [11] = molecular target: Man(a1-3)[Man(a1-6)]Man(a1-6)[Man(a1-2)Man(a1-3)]Man(b1-4)GlcNAc(b1-4)GlcNAc
# In short: as §1
# [12] = molecular target: Man(a1-3)[Man(a1-6)]Man(a1-6)[Man(a1-3)]Man
# In short: as §1
# [13] = molecular target: Man(a1-3)[Man(a1-6)]Man(a1-6)[Man(a1-3)]Man(b1-4)GlcNAc(b1-4)GlcNAc
# In short: as §1
# [14] = molecular target: Man(a1-3)[Man(a1-6)]Man(b1-4)GlcNAc(b1-4)GlcNAc
# In short: as §1
# Man(a1-6)Man = molecular target: Man(a1-6)Man
# In short: as §1
# Man(b1-4)GlcNAc = molecular target: Man(b1-4)GlcNAc
# In short: as §1
# Neu5Ac(a2-3)Gal = molecular target: Neu5Ac(a2-3)Gal
# In short: as §1
# [15] = molecular target: Neu5Ac(a2-3)Gal(b1-3)GalNAc
# In short: as §1
# [16] = molecular target: Neu5Ac(a2-3)Gal(b1-3)GalNAc(b1-3)Gal(a1-4)Gal(b1-4)Glc
# In short: as §1
# [17] = molecular target: Neu5Ac(a2-3)Gal(b1-3)GalNAc(b1-4)[Neu5Ac(a2-3)]Gal(b1-4)Glc
# In short: as §1
# [18] = molecular target: Neu5Ac(a2-3)Gal(b1-3)GalNAc(b1-4)[Neu5Ac(a2-8)Neu5Ac(a2-3)]Gal(b1-4)Glc
# In short: as §1
# [19] = molecular target: Neu5Ac(a2-3)Gal(b1-3)GalNAc6S
# In short: as §1
# [20] = molecular target: Neu5Ac(a2-3)Gal(b1-3)GlcNAc
# In short: as §1
# [21] = molecular target: Neu5Ac(a2-3)Gal(b1-3)GlcNAc(b1-3)Gal(b1-3)GlcNAc
# In short: as §1
# [22] = molecular target: Neu5Ac(a2-3)Gal(b1-3)GlcNAc(b1-3)Gal(b1-4)GlcNAc
# In short: as §1
# [23] = molecular target: Neu5Ac(a2-3)Gal(b1-3)GlcNAc(b1-3)GalNAc
# In short: as §1
# [24] = molecular target: Neu5Ac(a2-3)Gal(b1-3)GlcNAc6S
# In short: as §1
# [25] = molecular target: Neu5Ac(a2-3)Gal(b1-3)[Fuc(a1-4)]GlcNAc
# In short: as §1
binder,measurement,setting,value
"MFG-E8 (Homo sapiens), Q08431 (protein) MPRPRLLAALCGALLCAPSLLVALDICSKNPCHNGGLCEEISQEVRGDVFPSYTCTCLKGYAGNHCETKCVEPLGLENGNIANSQIAASSVRVTFLGLQHWVPELARLNRAGMVNAWTPSSNDDNPWIQVNLLRRMWVTGVVTQGASRLASHEYLKAFKVAYSLNGHEFDFIHDVNKKHKEFVGNWNKNAVHVNLFETPVEAQYVRLYPTSCHTACTLRFELLGCELNGCANPLGLKNNSIPDKQITASSSYKTWGLHLFSWNPSYARLDKQGNFNAWVAGSYGNDQWLQVDLGSSKEVTGIITQGARNFGSVQFVASYKVAYSNDSANWTEYQDPRTGSSKIFPGNWDNHSHKKNLFETPILARYVRILPVAWHNRIALRLELLGC",glycan array binding signal (z-score),GlcNAc(b1-6)GalNAc,-0.778
same,glycan array binding signal (z-score),GlcNAc3Prop(b1-4)GlcNAc,-0.445
same,glycan array binding signal (z-score),[1],-0.749
same,glycan array binding signal (z-score),Kdn(a2-3)Gal(b1-3)GalNAc,-0.347
same,glycan array binding signal (z-score),Kdn(a2-3)Gal(b1-3)GlcNAc,-0.677
same,glycan array binding signal (z-score),Kdn(a2-3)Gal(b1-4)Glc,0.143
same,glycan array binding signal (z-score),Kdn(a2-3)Gal(b1-4)GlcNAc,-0.562
same,glycan array binding signal (z-score),[2],1.08
same,glycan array binding signal (z-score),Kdn(a2-6)Gal(b1-4)GlcNAc,-0.722
same,glycan array binding signal (z-score),[3],-0.642
same,glycan array binding signal (z-score),[4],-0.556
same,glycan array binding signal (z-score),Man(a1-2)Man(a1-3)Man,-0.562
same,glycan array binding signal (z-score),[5],-0.547
same,glycan array binding signal (z-score),[6],-0.613
same,glycan array binding signal (z-score),[7],-0.542
same,glycan array binding signal (z-score),[8],0.21
same,glycan array binding signal (z-score),[9],-0.646
same,glycan array binding signal (z-score),[10],2.16
same,glycan array binding signal (z-score),Man(a1-3)[Man(a1-6)]Man,-0.147
same,glycan array binding signal (z-score),[11],-0.553
same,glycan array binding signal (z-score),[12],-0.594
same,glycan array binding signal (z-score),[13],0.033
same,glycan array binding signal (z-score),[14],-0.603
same,glycan array binding signal (z-score),Man(a1-6)Man,-0.084
same,glycan array binding signal (z-score),Man(b1-4)GlcNAc,-0.797
same,glycan array binding signal (z-score),Neu5Ac(a2-3)Gal,-0.156
same,glycan array binding signal (z-score),[15],0.131
same,glycan array binding signal (z-score),[16],-0.564
same,glycan array binding signal (z-score),[17],1.61
same,glycan array binding signal (z-score),[18],0.242
same,glycan array binding signal (z-score),[19],-0.535
same,glycan array binding signal (z-score),[20],0.027
same,glycan array binding signal (z-score),[21],-0.639
same,glycan array binding signal (z-score),[22],-0.288
same,glycan array binding signal (z-score),[23],-0.168
same,glycan array binding signal (z-score),[24],-0.521
same,glycan array binding signal (z-score),[25],-0.532

# Reprinted at random: 2 entries already listed
binder,measurement,setting,value
"MFG-E8 (Homo sapiens), Q08431 (protein) MPRPRLLAALCGALLCAPSLLVALDICSKNPCHNGGLCEEISQEVRGDVFPSYTCTCLKGYAGNHCETKCVEPLGLENGNIANSQIAASSVRVTFLGLQHWVPELARLNRAGMVNAWTPSSNDDNPWIQVNLLRRMWVTGVVTQGASRLASHEYLKAFKVAYSLNGHEFDFIHDVNKKHKEFVGNWNKNAVHVNLFETPVEAQYVRLYPTSCHTACTLRFELLGCELNGCANPLGLKNNSIPDKQITASSSYKTWGLHLFSWNPSYARLDKQGNFNAWVAGSYGNDQWLQVDLGSSKEVTGIITQGARNFGSVQFVASYKVAYSNDSANWTEYQDPRTGSSKIFPGNWDNHSHKKNLFETPILARYVRILPVAWHNRIALRLELLGC",glycan array binding signal (z-score),Kdn(a2-6)Gal(b1-4)GlcNAc,-0.722
same,glycan array binding signal (z-score),[16],-0.564
